From patent US7994192B2 (Crestone, Inc., priority 2006, dated 2011)
Some of these results come from one statement about several compounds together.

What follows are compounds tested on C. difficile strain ATCC43255 toxin A (assay: Toxin A production in high cell density stationary phase C. difficile cultures (ELIFA)). Conditions: 4 day old stationary phase cultures.
Assay type: cell-based

SMILES	concentration inhibiting toxin production
O=c1cc(NCCCNC2CCOc3c(Br)cc(Br)cc32)[nH]c2ccsc12 (stereo not shown) [Example 3, 5-[3-(6,8-Dibromo-chroman-4-ylamino)-propylamino]-4H-thieno[3,2-b]pyridin-7-one]	≥ 0.25 µg/mL
Cl.Cl.O=c1cc(NCCCN[C@@H]2CCOc3c(Br)cc(Br)cc32)[nH]c2ccsc12 [R-(+)-5-[3-(6,8-Dibromo-chroman-4-ylamino)-propylamino]-4H-thieno[3,2-b]pyridin-7-one di-hydrochloride]	≥ 0.25 µg/mL
Cc1ncsc1CCOc1c(Br)cc(Br)cc1CNCCCNc1cc(=O)c2sccc2[nH]1	≥ 0.25 µg/mL
Cl.Cl.Cl.O=c1cc(NCCCNC2CCNc3c(Br)cc(Br)cc32)[nH]c2ccsc12 (stereo not shown) [5-[3-(6,8-Dibromo-1,2,3,4-tetrahydro-quinolin-4-ylamino)-propylamino]-4H-thieno[3,2-b]pyridin-7-one tri-hydrochloride]	≥ 0.25 µg/mL
